Laboratory results reported in PubChem BioAssay AID540256 (National Center for Advancing Translational Sciences (NCATS), 2011).
Hit rate of the full screen: of about 300,000 compounds, about 3,700 (1.2%) were called active. Inconclusive results, whose numbers are uncertain, are shown with a selection of clear calls. Calls come from the whole dose curve; tested in HEK293 cells. Where the call is inconclusive, the potency comes from a doubtful curve fit.
% is set by controls: 0 for no effect and ±100 for the full control effect; potency is the fitted concentration of half-maximal effect.

Assay: qHTS for Inhibitors of binding or entry into cells for Lassa Virus; note: nearly all actives have a fitted effect of over 50% in size
Details: Lassa virus pseudotype entry inhibition, cell reporter; activity change, negative = inhibition: at 37.9 µM (top of the series) unless noted
For `CC(C)CNC(=S)N1CCN(C)CC1`, the “activity change, negative = inhibition” value was inactive: -6.63%. For `CC1CCCCN1C(=O)CSc1nc2ccccc2nc1Cc1ccccc1` (configuration not stated), the Potency was inconclusive: 20 µM [inhibitor, partial curve, poor fit]. For `CCCC(=O)Nc1cccc(NC(=O)CN2CCN(c3ccccc3OC)CC2)c1`, the Potency was inconclusive: 12.6 µM [inhibitor, partial curve, poor fit]. In the case of `COc1ccc(O)c(C(=O)c2cnn(C(=O)c3cccc(S(=O)(=O)N(C)C)c3)c2)c1`, the Potency is reported as inconclusive: 3.16 µM [activator, full curve, poor fit]. For `COc1ccc(SN=C2C(C)=CC(=O)C=C2C)cc1`, the Potency was inconclusive: 35.5 µM [inhibitor, single point]. For `CCOc1ccc2oc(C(=O)N(CC)CC(=O)Nc3ccc(NC(C)=O)cc3)c(C)c2c1`, the “activity change, negative = inhibition” value was inactive: -17.5%. For `Cc1ccc(C(=O)NCCc2nnc3ccc(N4CCCC4)nn23)cc1`, the Potency was inconclusive: 6.31 µM [activator, single point]. For `COc1ccc(N=Nc2c(-c3ccc(OC)cc3)[nH]oc2=O)cc1`, the Potency was inconclusive: 3.55 µM [inhibitor, partial curve, poor fit]. With `N#Cc1cnc2nc(SCc3ccccc3)nn2c1` the Potency was inconclusive: 0.562 µM [activator, full curve, poor fit]. With `COc1cccc(C(=O)Nc2sc3c(c2C(=O)O)CCCC3)c1` the Potency was active: 10 µM. For `Cc1cc(C(=O)NNc2ccc(F)cc2F)no1`, the Potency was inconclusive: 8.91 µM [inhibitor, partial curve]. For `COc1ccc2cc(C#N)c(N3CCN(C(=O)c4ccccc4C)CC3)nc2c1`, the Potency was inconclusive: 17.8 µM [inhibitor, single point]. With `O=C(Nc1cccc(NC(=O)c2cccs2)c1)c1ccc([N+](=O)[O-])o1` the Potency was inconclusive: 12.6 µM [inhibitor, partial curve, poor fit]. For `Cc1cccc(NC(=O)c2cc(-c3cccnc3)nc3c(C)cccc23)n1`, the “activity change, negative = inhibition” value was inactive: -12.6%. For `Cc1csc2nc(O)c(C(=O)NCCCc3ccccc3)c(=O)n12`, the “activity change, negative = inhibition” value was inactive: -13.9%. With `Cc1ccc(C(=O)Nc2cccc(C(=O)O)c2)cc1S(=O)(=O)N1CCCCC1` the Potency was inconclusive: 7.08 µM [inhibitor, partial curve]. For `CCc1nnc(NC(=O)CSc2nnc(C)n2-c2ccc(C)cc2)s1`, the Potency was inconclusive: 10 µM [inhibitor, partial curve]. For `COc1ccc(CNC(=O)C2CCCCN2S(=O)(=O)c2ccc(F)cc2)cc1` (configuration not stated), the Potency was inconclusive: 35.5 µM [inhibitor, single point]. In the case of `COC(=O)c1sc(N)c(C(=O)OC)c1Cn1ncc(Cl)c(Cl)c1=O`, the Potency is reported as inconclusive: 15.8 µM [inhibitor, single point]. With `Cc1cc(OCC(=O)NCCc2ccc(Cl)cc2)c2c(C)cc(=O)oc2c1` the Potency was inconclusive: 3.55 µM [inhibitor, single point]. For `CCOC(=O)CNC(=O)CSc1nnnn1-c1ccc(C)c(C)c1`, the activity change, negative = inhibition was inconclusive: 31.9% [activator]. With `CC(C)Cn1c(SC(C)C(=O)Nc2ccc3c(c2)OCCO3)nc2ccccc2c1=O` (configuration not stated) the Potency was active: 11.6 µM. For `N/C(=N\O)c1ccncc1`, the Potency was inconclusive: 2.82 µM [inhibitor, partial curve, poor fit]. In the case of `CCOC(=O)c1c(S(=O)(=O)N2CCC(C(=O)Nc3ccc(C)cn3)CC2)c(C)n(C)c1C`, the Potency is reported as inconclusive: 3.55 µM [activator, single point]. In the case of `O=C(CNC(=O)c1ccc2c(c1)OCO2)N/N=C(Br)/C=C/c1ccccc1`, the Potency is reported as inconclusive: 5.17 µM [inhibitor, full curve]. For `Cc1ccc(S(=O)(=O)N(C)C)cc1NC(=O)c1cncc(Br)c1`, the Potency was inconclusive: 10.3 µM [inhibitor, partial curve]. With `CN(c1nc(-c2ccc(Br)cc2)cs1)C1CCS(=O)(=O)C1` (configuration not stated) the “activity change, negative = inhibition” value was inactive: 8.35% [at 46.1 µM]. In the case of `CCc1ccc(C(C)NC(=O)/C(C#N)=C\c2cn[nH]c2-c2ccccc2)cc1` (configuration not stated), the Potency is reported as inconclusive: 29.1 µM [inhibitor, single point]. With `c1ccc(-n2cc(CN3CCC(N4CCOCC4)CC3)c(-c3ccc4c(c3)OCO4)n2)cc1` the Potency was inconclusive: 25.1 µM [inhibitor, single point]. With `COC(=O)Nc1ccc(S(=O)(=O)Nc2cc(C(F)(F)F)c[nH]c2=O)cc1` the Potency was inconclusive: 3.55 µM [inhibitor, partial curve, poor fit]. For `COc1ccc(CNC(=O)c2ccc3c(c2)N=C(C)c2c(C)ccc(C)c2S3)cc1`, the Potency was inconclusive: 2.82 µM [inhibitor, partial curve, poor fit]. In the case of `CCN(CC)c1ccc(NC(=O)CN2CCN(S(=O)(=O)c3ccc(C(C)C)cc3)CC2)cc1`, the Potency is reported as inconclusive: 11.2 µM [inhibitor, partial curve, poor fit]. For `c1ccc2cc(CNCc3cccc4ccccc34)ccc2c1`, the Potency was inconclusive: 17.8 µM [activator, single point]. In the case of `COc1cccc(-c2cc(C(=O)N/N=C/c3cccc(OC)c3OC)c3ccccc3n2)c1`, the Potency is reported as inconclusive: 0.282 µM [inhibitor, full curve, poor fit]. For `CCn1c(SC)nc2c([nH]c3ccccc32)c1=O`, the “activity change, negative = inhibition” value was inactive: -3.73% [at 46.1 µM]. With `CCC(C)NC(=O)CO/N=C/c1ccccc1OC(F)F` (configuration not stated) the “activity change, negative = inhibition” value was inactive: -13%. For `Cc1cccc(C)c1N1CCN(S(=O)(=O)N2CCCCC2)CC1`, the Potency was inconclusive: 35.5 µM [inhibitor, single point]. With `C=C1C(=O)OC2C=C(CO)C3OC3C3OC3(C)CC(OC(=O)/C(=C/C)COC(C)=O)C12` (configuration not stated) the Potency was inconclusive: 7.94 µM [inhibitor, partial curve, poor fit]. For `O=C(N/N=C/c1ccccc1O)c1cc[n+]([O-])cc1`, the Potency was inconclusive: 35.5 µM [inhibitor, partial curve, poor fit]. In the case of `O=[N+]([O-])c1cccnc1N1CCN(c2ccc(F)cc2)CC1`, the Potency is reported as inconclusive: 4.47 µM [inhibitor, single point]. In the case of `O=C(CNC(=O)C1CC1)Nc1ccc(F)c(F)c1F`, the “activity change, negative = inhibition” value is reported as inactive: 28.8% [at 46.1 µM]. In the case of `O=C(Cc1ccc2c(c1)OCO2)NN=Cc1ccc([N+](=O)[O-])o1`, the Potency is reported as inconclusive: 35.5 µM [inhibitor, single point].
